Measurements from paper PMC3118390, “PKC isoforms interact with and phosphorylate DNMT1” (BMC Biology, 2011).
Results are given in words; binding and its absence hold for the method and conditions named. Binding seen in cells or lysates may run through a third protein. Some binding calls cover weakened binding; strength is not graded here.

Amino acid sequences for entries named in this document (tags omitted).
UniProt P26358: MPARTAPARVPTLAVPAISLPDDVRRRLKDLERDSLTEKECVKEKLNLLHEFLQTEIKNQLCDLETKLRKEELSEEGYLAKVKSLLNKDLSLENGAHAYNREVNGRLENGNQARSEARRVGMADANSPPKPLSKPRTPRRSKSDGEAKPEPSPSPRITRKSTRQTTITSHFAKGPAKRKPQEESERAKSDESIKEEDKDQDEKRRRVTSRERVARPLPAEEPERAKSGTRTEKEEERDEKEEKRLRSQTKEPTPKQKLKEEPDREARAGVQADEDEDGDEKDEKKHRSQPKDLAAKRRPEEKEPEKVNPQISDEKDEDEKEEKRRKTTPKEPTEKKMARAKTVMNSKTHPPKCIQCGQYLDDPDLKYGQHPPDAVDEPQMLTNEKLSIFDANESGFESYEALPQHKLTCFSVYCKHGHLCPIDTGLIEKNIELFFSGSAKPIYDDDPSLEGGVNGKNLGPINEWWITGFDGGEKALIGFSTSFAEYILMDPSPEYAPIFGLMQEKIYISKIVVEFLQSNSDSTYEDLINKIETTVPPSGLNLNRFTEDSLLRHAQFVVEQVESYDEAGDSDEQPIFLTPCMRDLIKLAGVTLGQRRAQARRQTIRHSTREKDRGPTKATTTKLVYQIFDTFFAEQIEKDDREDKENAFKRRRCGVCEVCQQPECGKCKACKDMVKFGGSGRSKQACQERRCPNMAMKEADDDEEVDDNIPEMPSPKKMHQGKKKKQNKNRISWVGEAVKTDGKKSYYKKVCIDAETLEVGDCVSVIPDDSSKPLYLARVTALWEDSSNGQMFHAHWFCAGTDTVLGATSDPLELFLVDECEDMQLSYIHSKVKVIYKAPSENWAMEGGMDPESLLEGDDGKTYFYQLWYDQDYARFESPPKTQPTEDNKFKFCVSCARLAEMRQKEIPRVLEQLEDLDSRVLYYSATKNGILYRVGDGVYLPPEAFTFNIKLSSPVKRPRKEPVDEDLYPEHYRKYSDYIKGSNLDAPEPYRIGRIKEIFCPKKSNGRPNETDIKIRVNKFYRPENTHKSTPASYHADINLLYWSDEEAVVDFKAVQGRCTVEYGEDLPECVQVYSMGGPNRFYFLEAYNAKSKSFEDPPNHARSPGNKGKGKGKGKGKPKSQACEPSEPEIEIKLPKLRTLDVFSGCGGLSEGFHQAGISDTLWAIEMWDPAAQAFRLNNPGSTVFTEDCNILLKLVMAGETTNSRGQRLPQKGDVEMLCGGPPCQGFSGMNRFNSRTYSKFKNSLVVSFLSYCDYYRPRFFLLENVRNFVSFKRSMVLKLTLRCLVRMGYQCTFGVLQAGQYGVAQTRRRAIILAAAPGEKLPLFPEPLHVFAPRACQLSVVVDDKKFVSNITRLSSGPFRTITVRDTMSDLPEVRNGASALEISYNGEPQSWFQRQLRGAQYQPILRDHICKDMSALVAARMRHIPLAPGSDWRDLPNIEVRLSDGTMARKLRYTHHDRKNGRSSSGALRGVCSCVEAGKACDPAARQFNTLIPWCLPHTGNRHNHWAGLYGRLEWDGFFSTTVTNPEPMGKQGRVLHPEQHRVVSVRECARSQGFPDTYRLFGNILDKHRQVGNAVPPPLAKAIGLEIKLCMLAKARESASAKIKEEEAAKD

Molecular target: endogenous DNMT1 (human (endogenous in HEK-293)) (UniProt P26358)
Experiment: co-IP; HEK-293 nuclear proteins; anti-DNMT1 prebound to protein G beads, four hours at 4°C; PKCζ detected in the immunoprecipitate by kinase activity with (γ-32P)ATP and a PKCζ specific substrate

- binding: binds
B1: endogenous PKCζ (enzyme, UniProt Q05513 1-592)
chain: MPSRTGPKMEGSGGRVRLKAHYGGDIFITSVDAATTFEELCEEVRDMCRLHQQHPLTLKWVDSEGDPCTVSSQMELEEAFRLARQCRDEGLIIHVFPSTPEQPGLPCPGEDKSIYRRGARRWRKLYRANGHLFQAKRFNRRAYCGQCSERIWGLARQGYRCINCKLLVHKRCHGLVPLTCRKHMDSVMPSQEPPVDDKNEDADLPSEETDGIAYISSSRKHDSIKDDSEDLKPVIDGMDGIKISQGLGLQDFDLIRVIGRGSYAKVLLVRLKKNDQIYAMKVVKKELVHDDEDIDWVQTEKHVFEQASSNPFLVGLHSCFQTTSRLFLVIEYVNGGDLMFHMQRQRKLPEEHARFYAAEICIALNFLHERGIIYRDLKLDNVLLDADGHIKLTDYGMCKEGLGPGDTTSTFCGTPNYIAPEILRGEEYGFSVDWWALGVLMFEMMAGRSPFDIITDNPDMNTEDYLFQVILEKPIRIPRFLSVKASHVLKGFLNKDPKERLGCRPQTGFSDIKSHAFFRSIDWDLLEKKQALPPFQPQITDDYGLDNFDTQFTSEPVQLTPDDEDAIKRIDQSEFEGFEYINPLLLSTEESV
